Library screening results

The chains behind the UniProt entries cited, without tags or fusion partners.
UniProt E9BF75, entry or part of it: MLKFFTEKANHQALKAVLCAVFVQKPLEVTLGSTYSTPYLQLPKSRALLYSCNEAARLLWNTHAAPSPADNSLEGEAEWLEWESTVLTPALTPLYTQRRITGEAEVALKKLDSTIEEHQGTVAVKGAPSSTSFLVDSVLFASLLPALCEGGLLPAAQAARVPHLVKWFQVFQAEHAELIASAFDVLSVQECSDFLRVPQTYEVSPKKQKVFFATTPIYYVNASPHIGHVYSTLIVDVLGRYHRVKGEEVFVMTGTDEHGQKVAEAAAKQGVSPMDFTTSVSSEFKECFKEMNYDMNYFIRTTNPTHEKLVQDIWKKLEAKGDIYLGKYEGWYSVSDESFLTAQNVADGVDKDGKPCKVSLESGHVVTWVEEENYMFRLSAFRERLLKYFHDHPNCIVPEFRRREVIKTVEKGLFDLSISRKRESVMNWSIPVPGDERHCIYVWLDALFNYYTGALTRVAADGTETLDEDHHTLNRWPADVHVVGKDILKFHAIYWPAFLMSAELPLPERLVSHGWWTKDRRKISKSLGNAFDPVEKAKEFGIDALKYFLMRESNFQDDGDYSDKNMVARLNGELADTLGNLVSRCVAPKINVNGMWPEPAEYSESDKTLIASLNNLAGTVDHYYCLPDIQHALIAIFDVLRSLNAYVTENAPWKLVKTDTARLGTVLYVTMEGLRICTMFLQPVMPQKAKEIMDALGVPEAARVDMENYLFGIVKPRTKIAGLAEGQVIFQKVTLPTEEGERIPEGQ

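Primary screen of methionyl-tRNA synthetase; the read-out is not stated. Target: Methionyl-tRNA synthetase (putative), Leishmania donovani (UniProt E9BF75). The test concentration is not given. Values are per cent inhibition. Of about 68,000 compounds tested this way, about 24 (0.035%) reached 50% or more in at least one test.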

Results are percentages, as filed. The record does not define 0% and 100%; most values in the screen are far below 50% and negative numbers occur (in some assays of this library far below -100). Compounds were drawn at random from those tested, without regard to their results.

compound	inhibition
NC(=O)CN1CCCC(C(=O)N2CCC(O)(c3ccccc3)CC2)C1 (stereo not shown)	11.87%
CCCc1nc(NC2(COC)CCCC2)c2cnn(C)c2n1	15.48%
CC(CO)NC(=O)c1ccc(NCc2cc(C#N)ccc2F)cc1 (stereo not shown)	8.06%
Cc1nn(C)c2nc(-c3ccccn3)nc(NCCCOC(C)C)c12	12.53%
Cc1cc(-n2cccn2)ccc1CN1CCC(O)(CN2CCCCC2)C1 (stereo not shown)	11.14%
Cc1c(C)n2c(SCC(=O)N3CCC(C)CC3)nnc2[nH]c1=O	10.31%
Cc1cccc(CN2C[C@@H](C)[C@@]3(CCN(CC(=O)N(C)C)C3=O)C2)c1	17.37%
Cc1nc(CN2CCN(C(=O)CCc3cccnc3)CC2)no1	4.982%
CCc1cnc(N)nc1NCCCn1nc(C)nc1C	22.08%
Cc1cc(C)cc(-c2ccc(CC3(C(=O)O)CCOCC3)cc2)c1	-4.452%
CS(=O)(=O)N1CC2(CCCN2Cc2ccc(Cl)cc2)Cc2ccccc21 (stereo not shown)	13.14%
CN(C)S(=O)(=O)N1C[C@H]2C[C@H](C(=O)Nc3ccccc3)[C@@H](C1)O2	19.31%
CCc1cc(NCC(O)CN2CCCC2)ncn1 (stereo not shown)	5.363%
Cc1nc(CCCNC(=O)c2c(F)cc(F)cc2F)n[nH]1	23.12%
COC(=O)C1CN(CC(=O)Nc2ccccc2Cl)c2ccccc21 (stereo not shown)	2.41%
CCN1C(=O)CC[C@]12CC[C@@H](NC(=O)NCc1cccnc1)CC2	14.55%
Cc1cnn(C(C)C2CC2)c1NC(=O)c1ccco1 (stereo not shown)	15.38%
COc1cccc(-c2c[nH]c(C)n2)c1F	13.8%
CSc1nc(C2CC2)nc(C)c1C(=O)NCc1cc(C)on1	16.67%
COCC(c1cccc(C(F)(F)F)c1)N(C)C(=O)c1cc(C)no1 (stereo not shown)	11.22%
CCN(Cc1ccoc1)C(=O)c1ccncc1O	6.407%
Cc1ccc(C(=O)N2CCC3(CCCC3)CC2)c(=O)[nH]1	21.56%
CC(C)c1noc(C(C)N2CCN(CCO)CC2)n1 (stereo not shown)	3.922%
CC(Cn1ccnc1)NCc1cc(Br)c2c(c1)OCO2 (stereo not shown)	-1.882%
c1ccc(C2CCCN(Cc3cc4n(n3)CCNC4)CC2)cc1 (stereo not shown)	13.18%
CNC(=O)N1CC[C@H]2N(C)CC[C@@]2(C(=O)Nc2ccccc2)CC1	9.524%
Cc1cc(O)nc(C2CCCN(Cc3ccncc3)C2)n1 (stereo not shown)	9.932%
O=C(CNC(=O)C1CC1)NCc1ccc(Cl)s1	5.459%
COCc1cnc2n1CCN(C(=O)c1cn(C)c3ccccc13)C2C (stereo not shown)	11.14%
CCOCCN1CCN(Cc2nc(CC(C)C)no2)CC1	18.95%
CCNC(=O)[C@@H]1C[C@H](N)CN1C(=O)c1cccc(CCC(C)(C)O)c1	-3.152%
c1ccc(N2CCC3(COCCN(c4ncccn4)C3)C2)nc1 (stereo not shown)	13.54%
Nc1cnn(CC(=O)N2CCCCC2)c1	5.825%
Cc1ccc(-c2nnn(CCN3C(=O)CCC3=O)n2)cc1	-1.397%
CN(C)C(=O)CN1CCC2(CC1)CC(=O)c1c(ccc3ccccc13)O2	10.28%
O=C(NCCN1CCOC1=O)c1cc(-c2ccccc2)on1	4.077%
Cc1nnc(CN2CCCC2c2ccc3c(c2)OCCO3)n1C (stereo not shown)	12.77%
COc1ccc(C(=O)N2CCN(CCO)CC2)c(F)c1	7.955%
Cc1cc(C2CCCN(Cc3nc(Cc4ccccc4)no3)C2)n[nH]1 (stereo not shown)	1.626%
O=C(NCCc1ccccn1)[C@@]12CCO[C@@H]1CCN(C1CCC1)C2	13.45%
O=S1(=O)NC(C2CCN(Cc3ccncc3)CC2)Nc2ccccc21 (stereo not shown)	7.767%
N#Cc1cnc2ccccc2c1N1CCNCC1	18.01%
CCc1ncnc(N2CCOCC2CCO)c1F (stereo not shown)	8.108%
Cc1ccc(CCC(=O)N2CCOCC2)cc1Cl	5.85%
COCC(C)NC(=O)c1cc(Br)c2c(c1)OCCO2 (stereo not shown)	11.19%
OCCn1ncc2c1CN(CC1CCOc3ccccc3C1)C2 (stereo not shown)	15.78%
Cc1ccccc1CN1CCC(CNc2ncnc3c2CCNCC3)C1 (stereo not shown)	8.411%
COc1ccc(F)cc1C(C)NC(=O)NCCCn1cncn1 (stereo not shown)	15.06%
Cc1cc(-c2cncnc2)ccc1OCC(N)=O	0%
O=C(c1ccccn1)N1C[C@@H]2CC[C@H](C1)N(C(=O)CCc1cccs1)C2	12.6%
Cn1cc(CN2CCCC(CCc3ccc(F)cc3F)C2)cn1 (stereo not shown)	11.02%
FC(F)(F)CCc1ccnc(N2CCN(CCc3ccncc3)CC2)n1	6.634%
CC(Cn1cccn1)NC(=O)NCc1ccc(C(N)=O)cc1 (stereo not shown)	18.78%
Cc1cc(C)n(C2CN(CC(=O)NC(C3CC3)C3CC3)C2)n1	18.62%
Cc1nc2cc(C(=O)N3CCCC(n4cncn4)C3)ccc2n1C (stereo not shown)	6.032%
CS(=O)(=O)N1CCC(N2CCCC2c2ccccn2)CC1 (stereo not shown)	3.351%
CNC(=O)NC(=O)CSc1ccc2c(c1)CCC2	-1.099%
COc1ncccc1CNC(=O)NCCNS(C)(=O)=O	24.57%
Cc1cc(N2CCC3(CCCN(CCO)C3=O)C2)nc2cc(Cl)ccc12 (stereo not shown)	19.81%
COCCN1C(=O)CCC12CCCN(C(=O)NC(C)C)CC2 (stereo not shown)	8.964%

Repeated from the top, 7 entries:

{"compound": "NC(=O)CN1CCCC(C(=O)N2CCC(O)(c3ccccc3)CC2)C1", "stereo": "stereo not shown", "inhibition": 11.87}
{"compound": "CCCc1nc(NC2(COC)CCCC2)c2cnn(C)c2n1", "inhibition": 15.48}
{"compound": "CC(CO)NC(=O)c1ccc(NCc2cc(C#N)ccc2F)cc1", "stereo": "stereo not shown", "inhibition": 8.06}
{"compound": "Cc1nn(C)c2nc(-c3ccccn3)nc(NCCCOC(C)C)c12", "inhibition": 12.53}
{"compound": "Cc1cc(-n2cccn2)ccc1CN1CCC(O)(CN2CCCCC2)C1", "stereo": "stereo not shown", "inhibition": 11.14}
{"compound": "Cc1c(C)n2c(SCC(=O)N3CCC(C)CC3)nnc2[nH]c1=O", "inhibition": 10.31}
{"compound": "Cc1cccc(CN2C[C@@H](C)[C@@]3(CCN(CC(=O)N(C)C)C3=O)C2)c1", "inhibition": 17.37}

From ChEMBL document CHEMBL3988442, “University of Dundee, Small-Polar-MMV Screening Library” (2021).